The target in the experiment is 6*His-hFXRα-LBD (human farnesoid X receptor alpha, ligand-binding domain) (human). Briefly: AlphaScreen or HTRF; 100 nmol/L 6*His-hFXRα-LBD, 100 nmol/L biotinylated SRC2-3 or NCoR2 peptide, Ivermectin (5 μmol/L) with or without DC646 at 11 μmol/L; same buffer, pH 7.4, room temperature; both purified. Background: In Alpha technology, singlet oxygen from a donor bead excites a nearby acceptor bead.

These are yes or no findings as the source states them, for the method shown. A result given as binding can be weak or reduced; the word gives no strength.

On to GHSFADPASNLGLEDIIRKALMGSF (biotin on the N-terminus (printed as Bio-)) [Biotin-labeled NCoR2 peptide], for which the binding entry is “binds”.

The values are drawn from paper PMC11992618, “Development of cyclopeptide inhibitors specifically disrupting FXR–coactivator interaction in the intestine as a novel therapeutic strategy for MASH” (Life Metabolism, 2025).
